PubChem BioAssay AID504764, Drosophila RNAi Screening Center – 2011
The deposit covers about 22,000 reagents; shown is a random part of those that have a named target and a result. Of all reagents, 403 (1.9%) were called active. 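Unnormalised raw counts per well; ratio z-scores behind the hit calls and whether each hit raises or lowers signal are not deposited.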 Reagents against one gene are numbered here. Not stated in the record: the amount of reagent.

Screen: 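Genome-wide screen for regulators of Notch-driven gene expression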 (primary screen)
System: Drosophila Kc167 cells
Reagent: long dsRNA against Drosophila genes
Timing: about 5 days (4 days dsRNA, then 24 h after transfection)
Challenge: transfection of constitutively active membrane-tethered Notch lacking the extracellular domain, read 24 h later
Read-out: 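Light from a Notch-responsive E(spl)m3 luciferase reporter under active Notch, with control-promoter and no-Notch reporter wells to normalise; raw counts from paired wells a and b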
Direction: induced reporter light, run 1, well a and induced reporter light, run 1, well b: higher = more light from the Notch target reporter with active Notch; control promoter light, run 1, well a and control promoter light, run 1, well b: higher = more light from the viral control promoter (cell number, transfection, viability); uninduced reporter light, run 1, well a: higher = more light from the Notch target reporter without active Notch
Call rule: 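Hit if the duplicate-averaged log2 ratio of induced to control-promoter light gives a plate-wise z beyond ±2, or induced to uninduced beyond ±1.8; weak-control or discordant-duplicate wells dropped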
Calls: active = modifier hit (raised or lowered Notch signal); inactive = not a hit

| Target gene | reagent no. | induced reporter light, run 1, well a | induced reporter light, run 1, well b | control promoter light, run 1, well a | control promoter light, run 1, well b | uninduced reporter light, run 1, well a | activity call |
| --- | --- | --- | --- | --- | --- | --- | --- |
| CAH4 (GeneID 42965) | 1 | – | – | – | – | – | active |
| VGAT (GeneID 36574) | 1 | 1.08e5 | 1.01e5 | 1.36e5 | 1.39e5 | 9970 | inactive |
| CG13871 (GeneID 37303) | 1 | 1.07e5 | 96940 | 1.07e5 | 1.07e5 | 7950 | inactive |
| CG3708 (GeneID 31039) | 1 | 1.11e5 | 1.32e5 | 1.99e5 | 1.85e5 | 9020 | inactive |
| CG15449 (GeneID 33079) | 1 | 96435 | 92235 | 1.02e5 | 1.23e5 | 11865 | inactive |
| CG31008 (GeneID 318554) | 1 | 64670 | 96245 | 1.01e5 | 1.16e5 | 7110 | inactive |
| MESR3 (GeneID 35116) | 1 | 31475 | 30435 | 40085 | 54605 | 2860 | inactive |
| Cdk9 (GeneID 37586) | 1 | 1.49e5 | 1.22e5 | 1.28e5 | 1.28e5 | 7905 | active |
| CG32812 (GeneID 31074) | 1 | 1.34e5 | 1.50e5 | 3.00e5 | 2.84e5 | 10630 | inactive |
| Tnpo-SR (GeneID 33465) | 1 | 2.12e5 | 2.29e5 | 1.98e5 | 2.23e5 | 16092 | inactive |
| CG12659 (GeneID 50403) | 1 | 1.25e5 | 1.14e5 | 2.04e5 | 2.18e5 | 9355 | inactive |
| CG10576 (GeneID 38645) | 1 | 1.49e5 | 1.33e5 | 1.27e5 | 57015 | 16115 | inactive |
| CG31076 (GeneID 318582) | 1 | 1.26e5 | 1.37e5 | 1.89e5 | 1.82e5 | 10520 | inactive |
| CG15012 (GeneID 38529) | 1 | 1.62e5 | 1.08e5 | 83565 | 36375 | 13265 | inactive |
| CG4962 (GeneID 39793) | 1 | 1.56e5 | 2.20e5 | 2.36e5 | 2.07e5 | 10855 | inactive |
| mus302 (GeneID 39874) | 1 | 1.20e5 | 1.50e5 | 1.74e5 | 1.55e5 | 9310 | inactive |
| drosha (GeneID 35747) | 1 | 1.18e5 | 1.14e5 | 1.11e5 | 98530 | 9970 | inactive |
| velo (GeneID 38748) | 1 | 56675 | 58640 | 52450 | 70275 | 6532 | inactive |
| velo (GeneID 38748) | 2 | 1.17e5 | 1.13e5 | 1.26e5 | 68765 | 10375 | inactive |
| CG7407 (GeneID 40430) | 1 | 1.44e5 | 1.14e5 | 63935 | 73005 | 9750 | inactive |
| Ir48a (GeneID 3772197) | 1 | 1.61e5 | 1.72e5 | 2.38e5 | 2.29e5 | 19155 | inactive |
| Syx6 (GeneID 40373) | 1 | 1.54e5 | 1.66e5 | 1.54e5 | 1.39e5 | 17810 | inactive |
| CG13148 (GeneID 36398) | 1 | 92080 | 95040 | 1.40e5 | 1.02e5 | 6442 | inactive |
| MED4 (GeneID 38799) | 1 | 72345 | 63720 | 39365 | 14625 | 7740 | inactive |
| usp (GeneID 31165) | 1 | 1.43e5 | 1.38e5 | 2.27e5 | 2.52e5 | 10235 | inactive |
| CG6503 (GeneID 50079) | 1 | 1.42e5 | 1.27e5 | 1.83e5 | 1.85e5 | 12055 | inactive |
| swm (GeneID 35235) | 1 | 2.04e5 | 1.78e5 | 1.93e5 | 1.44e5 | 14205 | inactive |
| PIG-H (GeneID 40944) | 1 | 98205 | 1.14e5 | 80190 | 62355 | 5730 | inactive |
| CG4459 (GeneID 42377) | 1 | 2.01e5 | 1.75e5 | 1.85e5 | 1.88e5 | 11360 | inactive |
| beat-Vc (GeneID 41575) | 1 | 1.20e5 | 1.29e5 | 1.80e5 | 1.44e5 | 7890 | inactive |
| beat-Vc (GeneID 41575) | 2 | 49820 | 57700 | 59530 | 46180 | 4392 | inactive |
| CG33270 (GeneID 2768982) | 1 | 1.57e5 | 1.17e5 | 1.25e5 | 1.64e5 | 13160 | inactive |
| PIG-U (GeneID 34185) | 1 | 2.10e5 | 2.17e5 | 2.20e5 | 1.90e5 | 20515 | inactive |
| CG6790 (GeneID 41388) | 1 | 1.57e5 | 2.17e5 | 1.11e5 | 82280 | 13355 | inactive |
| CG4101 (GeneID 39857) | 1 | 1.48e5 | 1.29e5 | 2.14e5 | 1.55e5 | 7640 | inactive |
| CG14073 (GeneID 40046) | 1 | 1.74e5 | 1.43e5 | 2.82e5 | 2.55e5 | 9130 | active |
| Pdfr (GeneID 31234) | 1 | 1.11e5 | 1.14e5 | 1.73e5 | 1.70e5 | 9495 | inactive |
| aqz (GeneID 41058) | 1 | 18490 | 17090 | 18420 | 15830 | 842 | inactive |
| Cp190 (GeneID 41848) | 1 | 1.09e5 | 1.19e5 | 94030 | 95640 | 9950 | inactive |
| CG4597 (GeneID 38604) | 1 | 2.00e5 | 1.83e5 | 1.91e5 | 1.37e5 | 10155 | inactive |
| Nepl10 (GeneID 36366) | 1 | 1.27e5 | 1.01e5 | 1.55e5 | 1.57e5 | 10805 | inactive |
| Sema2b (GeneID 246538) | 1 | 1.22e5 | 1.23e5 | 1.71e5 | 1.45e5 | 8835 | inactive |
| Sema2b (GeneID 246538) | 2 | 1.07e5 | 1.18e5 | 1.44e5 | 1.12e5 | 8338 | inactive |
| Sema2b (GeneID 246538) | 3 | 44610 | 49230 | 89700 | 75430 | 4485 | inactive |
| CG3565 (GeneID 37933) | 1 | 67555 | 81910 | 50265 | 60960 | 5535 | inactive |
| Gr32a (GeneID 34545) | 1 | 1.10e5 | 1.34e5 | 73215 | 96725 | 16345 | inactive |
| by (GeneID 41144) | 1 | 75615 | 76510 | 75230 | 59045 | 3878 | inactive |
| CG13698 (GeneID 40000) | 1 | 1.05e5 | 1.42e5 | 80530 | 86180 | 9555 | inactive |
| CG14989 (GeneID 38485) | 1 | 1.78e5 | 1.43e5 | 1.06e5 | 58700 | 12800 | inactive |
| CG7137 (GeneID 37204) | 1 | 80980 | 90785 | 1.46e5 | 1.65e5 | 6320 | inactive |

Reprinted from the listing (8 entries):
| Target gene | reagent no. | induced reporter light, run 1, well a | induced reporter light, run 1, well b | control promoter light, run 1, well a | control promoter light, run 1, well b | uninduced reporter light, run 1, well a | activity call |
| --- | --- | --- | --- | --- | --- | --- | --- |
| beat-Vc (GeneID 41575) | 2 | 49820 | 57700 | 59530 | 46180 | 4392 | inactive |
| CG33270 (GeneID 2768982) | 1 | 1.57e5 | 1.17e5 | 1.25e5 | 1.64e5 | 13160 | inactive |
| PIG-U (GeneID 34185) | 1 | 2.10e5 | 2.17e5 | 2.20e5 | 1.90e5 | 20515 | inactive |
| CG6790 (GeneID 41388) | 1 | 1.57e5 | 2.17e5 | 1.11e5 | 82280 | 13355 | inactive |
| CG4101 (GeneID 39857) | 1 | 1.48e5 | 1.29e5 | 2.14e5 | 1.55e5 | 7640 | inactive |
| CG14073 (GeneID 40046) | 1 | 1.74e5 | 1.43e5 | 2.82e5 | 2.55e5 | 9130 | active |
| Pdfr (GeneID 31234) | 1 | 1.11e5 | 1.14e5 | 1.73e5 | 1.70e5 | 9495 | inactive |
| aqz (GeneID 41058) | 1 | 18490 | 17090 | 18420 | 15830 | 842 | inactive |
